From article PMC11040345
Results are given in words; binding and its absence hold for the method and conditions named. In cells and extracts the contact can be indirect. Some results given as binding are weak or reduced against the parent protein; the word gives no strength.

Protein sequences, listed by entry. Tags and fused reporters are not part of them.
UniProt P19338: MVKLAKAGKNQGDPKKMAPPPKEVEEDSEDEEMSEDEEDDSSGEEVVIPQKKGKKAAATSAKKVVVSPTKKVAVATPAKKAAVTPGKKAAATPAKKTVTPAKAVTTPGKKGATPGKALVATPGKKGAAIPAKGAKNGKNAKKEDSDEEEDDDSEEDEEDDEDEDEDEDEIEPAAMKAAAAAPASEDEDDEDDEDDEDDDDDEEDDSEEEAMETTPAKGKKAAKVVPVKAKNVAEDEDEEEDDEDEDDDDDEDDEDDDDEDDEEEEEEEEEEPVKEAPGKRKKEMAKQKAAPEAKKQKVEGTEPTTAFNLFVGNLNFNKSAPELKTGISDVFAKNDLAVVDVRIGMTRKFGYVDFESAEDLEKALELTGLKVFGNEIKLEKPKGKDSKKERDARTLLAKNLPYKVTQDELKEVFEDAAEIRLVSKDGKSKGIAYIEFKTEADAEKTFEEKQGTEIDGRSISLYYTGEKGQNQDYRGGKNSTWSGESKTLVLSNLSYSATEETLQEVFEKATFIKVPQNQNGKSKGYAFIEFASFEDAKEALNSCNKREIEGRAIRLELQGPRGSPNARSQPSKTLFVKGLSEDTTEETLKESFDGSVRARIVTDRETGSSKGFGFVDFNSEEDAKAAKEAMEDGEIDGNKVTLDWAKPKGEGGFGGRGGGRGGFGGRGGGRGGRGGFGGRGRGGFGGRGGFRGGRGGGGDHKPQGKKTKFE
UniProt P19474: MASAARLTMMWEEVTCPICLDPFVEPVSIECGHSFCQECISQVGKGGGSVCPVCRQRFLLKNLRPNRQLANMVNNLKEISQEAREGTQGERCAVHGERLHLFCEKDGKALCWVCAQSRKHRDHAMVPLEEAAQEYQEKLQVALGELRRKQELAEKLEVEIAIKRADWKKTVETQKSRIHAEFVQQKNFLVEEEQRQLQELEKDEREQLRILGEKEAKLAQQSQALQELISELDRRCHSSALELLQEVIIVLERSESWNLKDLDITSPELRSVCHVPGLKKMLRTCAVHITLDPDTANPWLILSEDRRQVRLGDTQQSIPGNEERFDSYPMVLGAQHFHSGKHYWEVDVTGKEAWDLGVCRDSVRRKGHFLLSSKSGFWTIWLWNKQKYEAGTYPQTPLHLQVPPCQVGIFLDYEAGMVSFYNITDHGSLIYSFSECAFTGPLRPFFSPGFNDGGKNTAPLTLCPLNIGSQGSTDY

How the values were obtained:
[1] = biological target: nucleolin (NCL), endogenous in 293T cells (human (endogenous in 293T)) (UniProt P19338); experiment: co-IP; 293T cells transfected with MYC-tagged TRIM21, siNC or si-circ0006646, treated with 10 µM MG132 for 6 h; lysate incubated with anti-NCL, then protein A/G magnetic beads; blots for MYC and NCL
[2] = biological target: nucleolin (NCL) (human (endogenous in HCCLM3)) (UniProt P19338); experiment: co-IP; HCCLM3 lysate incubated with anti-NCL or anti-IgG, then protein A/G magnetic beads; blots for TRIM21 and NCL

Substance: MYC-tagged TRIM21 (from UniProt P19474 1-475)
- binding [1]: binds

Substance: tripartite motif-containing 21 (TRIM21) (from UniProt P19474 1-475)
- binding [2]: binds
